From patent publication US20250127845A1, “MEDICINAL USES OF OLIGOPEPTIDES IN COMBINATION WITH AN ANTIANDROGEN” (HBC IMMUNOLOGY INC., priority 2022, published 2025) come the findings set out here.

Values joined by “and” are separate entries in the source; they are usually repeats but may differ in a detail not shown here. Equal entries are not always repeated.

Common to all, as to type: cell-based, human
The subject of experiment [1] is VCaP-EnzR cells. Kind of experiment: Clonogenic assay, VCaP-EnzR cells. The method, then:
(§1) Test Solutions. SPH test solutions were prepared by adding 10 μg, 40 μg, or 160 μg of SPH powder to 1 ml of DMEM containing 0.3% FBS+2% DMSO and sonicating for 10 min just prior to use. Bicalutamide, referred to herein as BIC, (Sigma-Aldrich, Catalog No. B9061) test solutions were prepared by adding 0.43 or 4.3 μg to 1 ml (1 μM and 10 μM) of DMEM containing 0.3% FBS+2% DMSO and sonicating for 10 min just prior to use. Enzalutamide, referred to herein as ENZ (Intas Pharmaceuticals, India), test solutions were prepared by serial dilution of a 1 mM stock solution (3% DMS in water) into culture medium.
Cell Culture. The C4 subline (CRL-3313™, RRID: CVCL 4783), which was derived from the human prostate carcinoma cell line LNCaP, was obtained from ATCC (Manassas, VA). C4, which is referred to herein as LNCaP, is an exemplary androgen receptor-positive (AR+ve) cell line that has an epithelial-like morphology and a low metastatic potential. The PC-3 cell line (CRL-1435, RRID: CVCL_0035) was obtained from ATCC (Manassas, VA). PC-3 is an exemplary androgen receptor-negative (AR−ve) cell line that has an epithelial morphology and a high metastatic potential. The Vertebral-Cancer of the Prostate (VCaP) cell line was obtained from Sigma-Aldrich, USA (Catalog No. 06020201). VCaP is a human cell line with an epithelial morphology that was established from a metastatic prostate cancer lesion (Korenchuk et al., In Vivo, 15(2):163˜168, 2001). VCaP cells are androgen receptor-positive and express high levels of prostate-specific antigen. The VCaP-EnzR cell line was also obtained from Sigma-Aldrich, USA (Catalog No. SCC421). […]
(§2) Clonogenic Assay. […] The colonies were allowed to develop over 12 days, stained with crystal violet and automatically counted using a TC20 Automated Cell Counter (Bio Rad, Hercules, CA). […] Relative plating efficiencies were expressed as percentages relative to the plating efficiency of untreated cells and reported as the relative percent colony survival value. […]

The subject of experiment [2] is transferrin receptor 1 (TFRC) mRNA. As to the kind of experiment: TFRC gene expression by qRT-PCR in VCaP cells. The settings on record: 1.4 μM ENZ alone. The method, then:
(§3) Gene Expression. LNCaP, PC-3, VCaP, and VCaP-EnzR cells were seeded in 24-well plates and maintained in RPMI1640 medium supplemented with 2 mmol/L L-glutamine. 100 U/mL penicillin, […] streptomycin, and 10% heat-inactivated fetal bovine serum at 37° C. in a humidified 5% CO2 atmosphere. […] SPH absent wells (DMSO 0.04%) were used as the negative control. All experiments were run in triplicate.
(§4) Samples were studied for expression of the ferritin heavy chain 1 (FTH1) and transferrin receptor 1 ([…]) genes. Total RNA was extracted from cell pellets using the UPzol reagent (Biotechrabbit), followed by DNAse treatment (DNAse TURBO) according to the manufacturers' protocols. Complementary DNA (cDNA) was synthesized with the High Capacity cDNA Reverse Transcription Kit (Applied Biosystems) using random hexamers. Gene expression levels were measured by qRT-PCR.
(§5) 1 μl of cDNA (corresponding to 50 ng of reverse transcribed RNA) was amplified by Qpcr (QuantStudio™ 6 Flex Real-Time PCR System), using TaqMan™ Universal PCR Master Mix (Catalog No. 4304437) and a TaqMan™ assay (Roche Molecular Systems, Inc., Pleasanton, CA). FTH1 and TFRC gene expression was estimated relative to expression of the housekeeping gene, beta-actin (ACTB), following the standard formula: 2-ΔCt. TaqMan probe IDs used include: (i) FTH1, Hs01694011_s1; (ii) TFRC, Hs00951083_m1; and (iii) ACTB, Hs01060665_g1. […]

Experiment [3] has the same test system. As to the kind of experiment: TFRC gene expression by qRT-PCR in VCaP-EnzR cells. The settings on record: 47 μM ENZ alone. As to the method:
as §3, §4, §5
A general note: Real-time PCR tracks product formation cycle by cycle.

Experiment [4] deals with ferritin heavy chain 1 (FTH1) mRNA. As to the kind of experiment: FTH1 gene expression by qRT-PCR in VCaP-EnzR cells. The note with it: 47 μM ENZ alone. The method, then:
as §3, §4, §5

Experiment [5] has as its system VCaP cells. As to the kind of experiment: Clonogenic assay, VCaP cells. The method, then:
as §1
Cell Culture. The C4 subline (CRL-3313™, RRID: CVCL 4783), which was derived from the human prostate carcinoma cell line LNCaP, was obtained from ATCC (Manassas, VA). C4, which is referred to herein as LNCaP, is an exemplary androgen receptor-positive (AR+ve) cell line that has an epithelial-like morphology and a low metastatic potential. The PC-3 cell line (CRL-1435, RRID: CVCL_0035) was obtained from ATCC (Manassas, VA). […]
as §2

The test system of experiment [6] is ferritin heavy chain 1 (FTH1) mRNA. Kind of experiment: FTH1 gene expression by qRT-PCR in VCaP cells. The note with it: 1.4 μM ENZ alone. The method, then: as §3, §4, §5

As usually defined, the IC50 is the concentration that inhibits the measured activity by half. As to `CNC(=O)c1ccc(N2C(=S)N(c3ccc(C#N)c(C(F)(F)F)c3)C(=O)C2(C)C)cc1F` [ENZ, enzalutamide, reference compound], the IC50 is 47 µM in experiment [1] (Homo sapiens, VCaP-ENZR, read-out: IC50 of enzalutamide) and 1.4 µM in experiment [5] (Homo sapiens, VCaP clonogenic assay, read-out: IC50 of enzalutamide). The “relative percent of cell survival” value in experiment [1] (VCaP-ENZR, 10 μM ENZ alone) is 64%; in experiment [5] (VCaP, 0.1 μM ENZ alone), 77%. Also, the relative survival in experiment [1] (VCaP-EnzR, 47 μM enzalutamide monotreatment) is 52%. Besides, the “TFRC Fold Change (single replicates)” value in experiment [2] is 1.1 and 1.0 (2×); in experiment [3] it was 1.1 and 1.0 and 1.3. The “TFRC Fold Change, Average” value was determined as 1.03 in experiment [2] and 1.13 in experiment [3]. Also, the “FTH1 Fold Change (single replicates)” value in experiment [4] was 0.7 and 0.8 (2×); in experiment [6] it was 1.1 (2×) and 1.0. Further, the “FTH1 Fold Change, Average” value came to 0.77 in experiment [4] and 1.07 in experiment [6].
